The values below come from publication PMC6508501, “Conserved redox‐dependent DNA binding of ROXY glutaredoxins with TGA transcription factors”.

Construct, isoform or probe ends are uncertain for at least one entry. For some of these results: No signal at the amounts used counts as a negative. For some of these results: Weaker means in comparison with the reference protein, sequence or condition of that experiment. For some of these results: At least one verdict rests on a figure or table, not on a statement of the authors.

In one series the test system is MpTGA. The series can be described thus: EMSA. The note with it: Redox EMSA per Gutsche & Zachgo 2016 (buffer, salt, pH, temperature not stated), 0.9 mM DTT (red) or 2 mM diamide (ox), 500 ng recombinant protein per reaction, protein translated in vitro, protein details: N-terminal 6xHis, label: 5' 6-FAM. Background: In EMSA bound probe runs differently from free probe, usually more slowly.

The next series deals with MpTGA + MpROXY2. As to the kind of experiment: EMSA supershift. Particulars: Redox EMSA per Gutsche & Zachgo 2016 (buffer, salt, pH, temperature not stated), 0.9 mM DTT (red) or 2 mM diamide (ox), 500 ng recombinant protein per reaction, protein translated in vitro, protein details: N-terminal 6xHis,N-terminal MBP, label: 5' 6-FAM.
For the next series, the system named is MpTGA3xC + MpROXY2. As to the kind of experiment: EMSA supershift. The note with it: 0.9 mM DTT (reducing); Redox EMSA per Gutsche & Zachgo 2016 (buffer, salt, pH, temperature not stated); 0.9 mM DTT (red) or 2 mM diamide (ox); 500 ng recombinant protein per reaction; protein translated in vitro; protein details: N-terminal 6xHis,N-terminal MBP; label: 5' 6-FAM.

Series [1] has as its system PAN (PERIANTHIA) + MpROXY1. The series can be described thus: EMSA supershift. The note with it: Redox EMSA per Gutsche & Zachgo 2016 (buffer, salt, pH, temperature not stated); 0.9 mM DTT (red) or 2 mM diamide (ox); 500 ng recombinant protein per reaction; recombinant protein; protein details: N-terminal MBP (per Methods),N-terminal MBP; label: 5' 6-FAM.
For the next series, the system named is MpTGA3xC. The series can be described thus: EMSA. Particulars: Redox EMSA per Gutsche & Zachgo 2016 (buffer, salt, pH, temperature not stated), 0.9 mM DTT (red) or 2 mM diamide (ox), 500 ng recombinant protein per reaction, protein translated in vitro, protein details: N-terminal 6xHis, label: 5' 6-FAM.
A further series deals with MpROXY1. As to the kind of experiment: EMSA. Particulars: 0.9 mM DTT or 2 mM diamide; Redox EMSA per Gutsche & Zachgo 2016 (buffer, salt, pH, temperature not stated); 0.9 mM DTT (red) or 2 mM diamide (ox); 500 ng recombinant protein per reaction; recombinant protein; protein details: N-terminal MBP; label: 5' 6-FAM.

For “AAGAATCTTTGATCAAATCATCACTCAGATATT (double strand) [ΔbZIP]”, the binding result with MpTGA (0.9 mM DTT (reducing)) is listed as “no binding”.
Still for that read-out and setting: the result for “AAGAATCTTTGATCACGTCATCACTCAGATATT (double strand)” reads “binds”.
In the case of “CTAAATCACTATTTTACTTAAATCATAG (double strand) [Δas-1-like]”, the binding result in the series with MpTGA (0.9 mM DTT (reducing)) is listed as “no binding”.
Take “CTACGTCACTATTTTACTTACGTCATAG (double strand) [as-1-like]”: the binding result in the series with MpTGA + MpROXY2 (0.9 mM DTT (reducing), supershift incomplete) is “binds”; with MpTGA + MpROXY2 (2 mM diamide (oxidizing)), “no binding”; in the series with MpTGA3xC + MpROXY2 it was “binds”; in series [1] it was “binds”; in the series with MpTGA (0.9 mM DTT (reducing)), “binds”; in the series on MpTGA (2 mM diamide (oxidizing)), “binds more weakly”. Further, the binding result in the series on MpTGA (2 mM diamide then 20 mM DTT) is reported as “binds”; in the series on MpTGA3xC (0.9 mM DTT (reducing)), “binds”; with MpTGA3xC (2 mM diamide (oxidizing)), “binds”; with MpROXY1, “no binding”.
